Screening data

From PubChem BioAssay record AID1053133 (Broad Institute, 2014).

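Vaccinia-infected cells with a two-color viral stage reporter; Venus fluorescence read on a plate reader; the cell line is not named here; timing not stated here.
The test concentration is not given here.
Percent change in Venus reporter signal; lower (more negative) values mean stronger inhibition of that viral stage.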

Values are in %.
How 0% and 100% were set is not given here.
Common to all entries: measured here: Venus reporter, other viral stage.
Part of the compounds only, not a random draw; the main read-out is not listed here.

structure	activity change (Venus) (%)
COc1ccc(S(=O)(=O)Nc2ccc3c(c2)C(=O)N([C@@H](C)CO)C[C@H](C)[C@@H](CN(C)Cc2ccc(C(F)(F)F)cc2)O3)cc1	-27.58
CNC[C@H]1Oc2cc(C#CC3CCCCC3)ccc2S(=O)(=O)N([C@H](C)CO)C[C@@H]1C	-36.09
COc1ccc(S(=O)(=O)Nc2ccc3c(c2)OC[C@@H](C)N(Cc2cc(F)ccc2F)C[C@@H](C)[C@H](OC)CN(C)C3=O)cc1	-32.95
O=C(C1CC1)N1CCCCN2[C@H](C1)[C@H](c1ccc(C#CC3CCCC3)cc1)[C@@H]2CO	-35.45
C[C@@H]1CN([C@H](C)CO)C(=O)c2cc(NC(=O)Nc3ccc(F)cc3)ccc2O[C@@H]1CN(C)Cc1ccc(C(F)(F)F)cc1	-50.07
C[C@@H]1CN([C@@H](C)CO)C(=O)Cc2cc(NC(=O)C3CCCCC3)ccc2O[C@H]1CN(C)Cc1ccc(Cl)c(Cl)c1	-49.27
COc1ccccc1CN1C[C@@H]2N[C@H](C1)[C@@H]2c1ccc(-c2cccnc2)cc1	-35.42
C[C@H]1CCCCO[C@@H](CN(C)CC2CCCCC2)[C@@H](C)CN([C@@H](C)CO)C(=O)c2cc(NC(=O)Nc3ccccc3)ccc2O1	-50.61
Cc1cccc(-c2ccc([C@@H]3[C@@H](CO)N4CCCCN(S(=O)(=O)c5ccccc5F)C[C@H]34)cc2)c1	-38.48
COc1cccc(S(=O)(=O)N2CCCCN3[C@H](CO)[C@H](c4ccc(C#CCC(C)C)cc4)[C@H]3C2)c1	-46.65
C[C@H](CO)N1C[C@H](C)[C@H](CN(C)C(=O)NC2CCCCC2)OCc2ccccc2-c2c(n(C)c3ccccc23)C1=O	-32.07
COc1ccc(NC(=O)Nc2ccc3c(c2)C(=O)N([C@H](C)CO)C[C@H](C)[C@H](CN(C)CC2CCCCC2)OCCCC[C@@H](C)O3)cc1	-36.74
CN1c2ccc(-c3ccccc3)cc2[C@@H]2[C@@H](CCN2S(=O)(=O)c2ccccc2F)[C@@H]1CO	-45.01
CCC(=O)N1C[C@@H](O)COC[C@H]2O[C@H](CC(=O)NCc3ccccc3Cl)CC[C@@H]21	-14.54
CC(C)CC#Cc1ccc2c(c1)O[C@H](CN(C)Cc1ccccc1F)[C@H](C)CN([C@H](C)CO)S2(=O)=O	-69.15
C[C@H](CO)N1C[C@H](C)[C@H](CN(C)CC2CC2)OCCCC[C@H](C)Oc2ccc(NC(=O)Nc3ccc(C(F)(F)F)cc3)cc2C1=O	-54.58
CCCNC(=O)N1[C@H](C#N)[C@H](c2ccc(-c3cccc(OC)c3)cc2)[C@@H]1CO	-32.92
C[C@H]1CN([C@@H](C)CO)C(=O)c2cc(NC(=O)Cc3ccccc3)ccc2O[C@@H]1CN(C)Cc1ccc(Oc2ccccc2)cc1	-33.8
COCC#Cc1ccc2c(c1)O[C@@H](CN(C)Cc1ccc(F)cc1)[C@H](C)CN([C@@H](C)CO)S2(=O)=O	-44.56
Fc1cccc(CN2C[C@@H]3N[C@H](C2)[C@@H]3c2ccc(-c3cccc(F)c3)cc2)c1	-64.5
COc1ccc2c3c([nH]c2c1)[C@H](CO)N(C(=O)CN(C)C)CC31CN(CC2CCCC2)C1	-20.48
CO[C@@H]1CN(C)C(=O)c2ccc(NC(=O)C3CCC3)cc2OC[C@@H](C)N(C(=O)Nc2ccc(C(F)(F)F)cc2)C[C@H]1C	-30.78
C[C@@H]1CCCCO[C@@H](CN(C)S(=O)(=O)c2cccs2)[C@H](C)CN([C@@H](C)CO)C(=O)c2cc(NC(=O)C3CCCCC3)ccc2O1	-42.33
C[C@@H]1CN([C@H](C)CO)S(=O)(=O)c2ccc(C#Cc3ccccc3)cc2O[C@@H]1CN(C)C(=O)c1ccccn1	-30.4
COc1cccc(C#Cc2cnc3c(c2)C(=O)N([C@@H](C)CO)C[C@@H](C)[C@H](CN(C)C(=O)C2CCCCC2)O3)c1	-50.71
CC(=O)N(C)C[C@@H]1Oc2cc(C#Cc3ccccc3)ccc2S(=O)(=O)N([C@@H](C)CO)C[C@H]1C	-36.7
COc1ccccc1NC(=O)N1CCCCN2[C@H](CO)[C@H](c3ccc(C#Cc4ccccc4)cc3)[C@H]2C1	-57.15
C[C@H]1CN([C@@H](C)CO)S(=O)(=O)c2ccc(C3=CCCCC3)cc2O[C@@H]1CN(C)S(=O)(=O)c1ccc(F)cc1	-39.46
OC[C@@H]1[C@H](c2ccc(C#CC3CC3)cc2)[C@@H]2CN(CCC(F)(F)F)CCCCN12	-21.7
C[C@@H]1CCCCO[C@H](CN(C)CC2CCCCC2)[C@H](C)CN([C@H](C)CO)C(=O)c2cc(NC(=O)Cc3ccccc3)ccc2O1	-58.22
CC(C)C#Cc1ccc([C@@H]2[C@H]3CN(C(=O)c4ccc5c(c4)OCO5)CCCCN3[C@H]2CO)cc1	-49.49
Cc1ccccc1S(=O)(=O)N1CC[C@@H]2[C@@H](CO)Nc3ccc(-c4cccc(F)c4)cc3[C@@H]21	-43.47
C[C@@H]1CN([C@H](C)CO)C(=O)c2cc(NS(=O)(=O)c3ccc(F)cc3)ccc2O[C@@H](C)CCCCO[C@H]1CN(C)Cc1ccc2c(c1)OCO2	-46.74
O=C(Nc1ccccc1F)N1CCCCN2[C@@H](CO)[C@@H](c3ccc(C#Cc4cccnc4)cc3)[C@@H]2C1	-30.39
COc1cccc(-c2ccc3c(c2)[C@H]2[C@H](CCN2C(=O)Cc2ccccc2)[C@@H](CO)N3)c1	-24.32
CCCC#Cc1cnc2c(c1)C(=O)N([C@@H](C)CO)C[C@@H](C)[C@H](CN(C)Cc1ccc(F)cc1)O2	-32.46
C[C@@H]1CCCCO[C@H](CN(C)C(=O)C2CCCCC2)[C@@H](C)CN([C@@H](C)CO)C(=O)c2cc(NC(=O)C3CCCCC3)ccc2O1	-28.95
COc1ccccc1C#Cc1ccc([C@@H]2[C@H](CO)N3CCCCN(C(=O)C4CC4)C[C@@H]23)cc1	-49.42
COc1ccc2c3c(n(C)c2c1)[C@H](CO)N(C(=O)Nc1ccc(F)cc1)CC31CCN(C(=O)NC2CCCC2)CC1	-38.54
CCCC#Cc1ccc2c(c1)O[C@@H](CN(C)C(=O)Nc1ccccc1F)[C@@H](C)CN([C@H](C)CO)S2(=O)=O	-34.65
O=C(C[C@H]1CC[C@@H]2[C@H](COC[C@@H](O)CN2S(=O)(=O)c2ccccc2)O1)Nc1ccc(-c2ccccc2)cc1	-42.72
C[C@@H]1CN([C@H](C)CO)S(=O)(=O)c2ccc(C3=CCCCC3)cc2O[C@@H]1CN(C)Cc1ccccn1	-59.59
COc1ccccc1CNC(=O)C[C@H]1CC[C@@H]2[C@H](COC[C@@H](O)CN2C(=O)Nc2ccc(C(F)(F)F)cc2)O1	-27.99
COc1ccc(S(=O)(=O)Nc2ccc3c(c2)C(=O)N([C@H](C)CO)C[C@H](C)[C@H](CN(C)C(=O)Cc2ccccc2)OCCCC[C@@H](C)O3)cc1	-18.05

Repeated from the top, 5 entries:

structure,activity change (Venus) (%)
COc1ccc(S(=O)(=O)Nc2ccc3c(c2)C(=O)N([C@@H](C)CO)C[C@H](C)[C@@H](CN(C)Cc2ccc(C(F)(F)F)cc2)O3)cc1,-27.58
CNC[C@H]1Oc2cc(C#CC3CCCCC3)ccc2S(=O)(=O)N([C@H](C)CO)C[C@@H]1C,-36.09
COc1ccc(S(=O)(=O)Nc2ccc3c(c2)OC[C@@H](C)N(Cc2cc(F)ccc2F)C[C@@H](C)[C@H](OC)CN(C)C3=O)cc1,-32.95
O=C(C1CC1)N1CCCCN2[C@H](C1)[C@H](c1ccc(C#CC3CCCC3)cc1)[C@@H]2CO,-35.45
C[C@@H]1CN([C@H](C)CO)C(=O)c2cc(NC(=O)Nc3ccc(F)cc3)ccc2O[C@@H]1CN(C)Cc1ccc(C(F)(F)F)cc1,-50.07